According to the supplement of paper PMC10849652:
Some of the results follow.

Chains of the proteins cited; added tags and fusions are not shown. Lines headed by an entry give the natural chain unless they say otherwise; changes in a name come on top.
UniProt P55735: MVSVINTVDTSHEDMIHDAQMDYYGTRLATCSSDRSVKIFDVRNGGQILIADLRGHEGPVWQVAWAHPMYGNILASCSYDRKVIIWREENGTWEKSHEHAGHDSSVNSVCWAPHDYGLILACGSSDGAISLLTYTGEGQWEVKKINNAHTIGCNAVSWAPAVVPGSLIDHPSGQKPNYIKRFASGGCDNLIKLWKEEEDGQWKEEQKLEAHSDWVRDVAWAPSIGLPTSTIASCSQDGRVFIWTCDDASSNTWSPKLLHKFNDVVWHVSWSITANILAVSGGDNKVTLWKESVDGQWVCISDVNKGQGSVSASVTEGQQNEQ
UniProt Q8WVM8, whole entry, looked up: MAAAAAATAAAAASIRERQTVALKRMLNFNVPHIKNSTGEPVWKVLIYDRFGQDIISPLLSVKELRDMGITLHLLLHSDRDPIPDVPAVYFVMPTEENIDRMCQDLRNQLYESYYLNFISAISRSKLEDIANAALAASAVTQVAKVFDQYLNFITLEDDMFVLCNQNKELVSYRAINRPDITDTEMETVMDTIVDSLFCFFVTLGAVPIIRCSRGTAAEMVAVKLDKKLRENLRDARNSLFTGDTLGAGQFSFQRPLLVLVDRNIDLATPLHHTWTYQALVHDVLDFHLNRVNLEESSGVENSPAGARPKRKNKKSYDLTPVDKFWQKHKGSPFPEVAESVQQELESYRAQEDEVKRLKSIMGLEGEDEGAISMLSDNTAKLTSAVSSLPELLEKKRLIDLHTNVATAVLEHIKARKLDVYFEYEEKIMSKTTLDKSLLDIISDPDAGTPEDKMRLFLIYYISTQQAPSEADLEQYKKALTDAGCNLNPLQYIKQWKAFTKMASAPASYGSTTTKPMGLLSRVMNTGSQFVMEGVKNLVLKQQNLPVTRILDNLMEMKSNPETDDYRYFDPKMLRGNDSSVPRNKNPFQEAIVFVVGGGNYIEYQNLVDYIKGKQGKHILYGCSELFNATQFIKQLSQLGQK
UniProt Q96I15: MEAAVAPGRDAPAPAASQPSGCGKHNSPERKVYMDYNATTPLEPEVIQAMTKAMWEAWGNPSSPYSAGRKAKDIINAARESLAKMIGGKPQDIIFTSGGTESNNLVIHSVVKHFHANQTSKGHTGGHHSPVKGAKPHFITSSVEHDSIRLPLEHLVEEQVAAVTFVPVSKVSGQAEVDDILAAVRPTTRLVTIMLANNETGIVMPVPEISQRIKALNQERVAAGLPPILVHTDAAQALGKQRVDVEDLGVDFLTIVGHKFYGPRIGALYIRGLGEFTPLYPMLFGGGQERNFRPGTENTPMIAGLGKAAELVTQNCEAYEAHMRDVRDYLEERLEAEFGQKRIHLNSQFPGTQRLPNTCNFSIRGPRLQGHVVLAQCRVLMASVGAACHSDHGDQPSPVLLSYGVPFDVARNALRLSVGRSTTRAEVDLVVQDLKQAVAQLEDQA
UniProt O00442: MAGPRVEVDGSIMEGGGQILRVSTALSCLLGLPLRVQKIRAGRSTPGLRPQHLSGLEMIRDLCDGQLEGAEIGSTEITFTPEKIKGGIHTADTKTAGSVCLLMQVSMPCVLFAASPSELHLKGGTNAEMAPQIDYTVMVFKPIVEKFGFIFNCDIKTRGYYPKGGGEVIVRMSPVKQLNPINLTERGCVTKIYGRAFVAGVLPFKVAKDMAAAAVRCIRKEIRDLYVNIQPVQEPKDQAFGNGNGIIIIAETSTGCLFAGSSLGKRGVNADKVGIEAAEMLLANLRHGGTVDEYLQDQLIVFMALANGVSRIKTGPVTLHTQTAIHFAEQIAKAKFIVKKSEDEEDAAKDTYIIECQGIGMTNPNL
UniProt O15126: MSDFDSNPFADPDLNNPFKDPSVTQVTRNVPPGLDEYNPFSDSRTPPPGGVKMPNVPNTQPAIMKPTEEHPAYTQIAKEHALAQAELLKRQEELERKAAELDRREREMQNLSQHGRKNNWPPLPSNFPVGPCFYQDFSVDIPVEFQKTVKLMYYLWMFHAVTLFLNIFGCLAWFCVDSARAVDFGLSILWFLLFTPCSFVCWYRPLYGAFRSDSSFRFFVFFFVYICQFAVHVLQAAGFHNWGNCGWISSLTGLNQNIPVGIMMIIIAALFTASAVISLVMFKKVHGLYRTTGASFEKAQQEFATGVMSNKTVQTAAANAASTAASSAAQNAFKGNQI
UniProt Q6IQ49: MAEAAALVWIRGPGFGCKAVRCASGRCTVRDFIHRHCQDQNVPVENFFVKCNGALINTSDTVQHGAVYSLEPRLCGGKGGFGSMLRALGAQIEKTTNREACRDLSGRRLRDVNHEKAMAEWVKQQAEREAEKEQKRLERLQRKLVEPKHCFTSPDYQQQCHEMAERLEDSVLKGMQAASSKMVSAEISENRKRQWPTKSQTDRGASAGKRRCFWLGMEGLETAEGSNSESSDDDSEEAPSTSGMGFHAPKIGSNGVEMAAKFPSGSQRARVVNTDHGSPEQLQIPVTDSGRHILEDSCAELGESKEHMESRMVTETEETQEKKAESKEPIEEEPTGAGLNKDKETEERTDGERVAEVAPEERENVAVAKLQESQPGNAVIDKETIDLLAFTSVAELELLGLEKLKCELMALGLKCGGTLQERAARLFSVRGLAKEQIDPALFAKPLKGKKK
UniProt Q99584: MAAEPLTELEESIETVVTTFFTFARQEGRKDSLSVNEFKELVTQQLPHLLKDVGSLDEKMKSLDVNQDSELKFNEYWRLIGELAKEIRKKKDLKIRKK
UniProt Q9Y265, whole entry, looked up: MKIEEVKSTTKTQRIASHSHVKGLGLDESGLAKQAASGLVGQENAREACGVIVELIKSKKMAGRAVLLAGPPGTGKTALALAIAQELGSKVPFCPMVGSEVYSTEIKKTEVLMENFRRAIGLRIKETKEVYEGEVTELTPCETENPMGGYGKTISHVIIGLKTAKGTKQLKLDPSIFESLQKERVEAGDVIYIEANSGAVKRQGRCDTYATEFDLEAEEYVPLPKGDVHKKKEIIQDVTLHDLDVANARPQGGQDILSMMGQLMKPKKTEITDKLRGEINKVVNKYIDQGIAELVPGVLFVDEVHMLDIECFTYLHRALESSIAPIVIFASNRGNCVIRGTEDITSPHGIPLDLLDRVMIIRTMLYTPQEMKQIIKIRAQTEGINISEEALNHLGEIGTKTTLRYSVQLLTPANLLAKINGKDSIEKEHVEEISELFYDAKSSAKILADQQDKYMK
UniProt Q8N488: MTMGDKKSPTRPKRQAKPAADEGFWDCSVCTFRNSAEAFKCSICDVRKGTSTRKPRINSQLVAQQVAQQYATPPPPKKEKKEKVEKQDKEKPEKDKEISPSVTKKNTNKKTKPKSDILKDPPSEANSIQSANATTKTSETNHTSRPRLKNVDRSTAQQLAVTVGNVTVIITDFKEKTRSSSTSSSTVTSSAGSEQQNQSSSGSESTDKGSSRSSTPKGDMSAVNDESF
UniProt Q9Y3I0: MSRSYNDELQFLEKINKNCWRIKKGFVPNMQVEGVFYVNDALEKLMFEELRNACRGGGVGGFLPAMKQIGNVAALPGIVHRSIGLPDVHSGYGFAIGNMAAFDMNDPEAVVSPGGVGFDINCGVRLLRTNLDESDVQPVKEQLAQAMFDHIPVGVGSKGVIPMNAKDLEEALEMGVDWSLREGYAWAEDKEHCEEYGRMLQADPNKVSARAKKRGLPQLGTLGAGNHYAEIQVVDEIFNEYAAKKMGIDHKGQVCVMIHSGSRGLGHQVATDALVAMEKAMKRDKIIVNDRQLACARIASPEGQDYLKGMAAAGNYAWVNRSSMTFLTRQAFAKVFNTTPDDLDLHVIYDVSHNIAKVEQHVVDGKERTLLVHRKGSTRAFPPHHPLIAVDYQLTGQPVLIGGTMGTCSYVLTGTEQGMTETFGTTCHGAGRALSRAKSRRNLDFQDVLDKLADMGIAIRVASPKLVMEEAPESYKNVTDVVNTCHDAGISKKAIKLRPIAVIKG
UniProt Q9NQC3: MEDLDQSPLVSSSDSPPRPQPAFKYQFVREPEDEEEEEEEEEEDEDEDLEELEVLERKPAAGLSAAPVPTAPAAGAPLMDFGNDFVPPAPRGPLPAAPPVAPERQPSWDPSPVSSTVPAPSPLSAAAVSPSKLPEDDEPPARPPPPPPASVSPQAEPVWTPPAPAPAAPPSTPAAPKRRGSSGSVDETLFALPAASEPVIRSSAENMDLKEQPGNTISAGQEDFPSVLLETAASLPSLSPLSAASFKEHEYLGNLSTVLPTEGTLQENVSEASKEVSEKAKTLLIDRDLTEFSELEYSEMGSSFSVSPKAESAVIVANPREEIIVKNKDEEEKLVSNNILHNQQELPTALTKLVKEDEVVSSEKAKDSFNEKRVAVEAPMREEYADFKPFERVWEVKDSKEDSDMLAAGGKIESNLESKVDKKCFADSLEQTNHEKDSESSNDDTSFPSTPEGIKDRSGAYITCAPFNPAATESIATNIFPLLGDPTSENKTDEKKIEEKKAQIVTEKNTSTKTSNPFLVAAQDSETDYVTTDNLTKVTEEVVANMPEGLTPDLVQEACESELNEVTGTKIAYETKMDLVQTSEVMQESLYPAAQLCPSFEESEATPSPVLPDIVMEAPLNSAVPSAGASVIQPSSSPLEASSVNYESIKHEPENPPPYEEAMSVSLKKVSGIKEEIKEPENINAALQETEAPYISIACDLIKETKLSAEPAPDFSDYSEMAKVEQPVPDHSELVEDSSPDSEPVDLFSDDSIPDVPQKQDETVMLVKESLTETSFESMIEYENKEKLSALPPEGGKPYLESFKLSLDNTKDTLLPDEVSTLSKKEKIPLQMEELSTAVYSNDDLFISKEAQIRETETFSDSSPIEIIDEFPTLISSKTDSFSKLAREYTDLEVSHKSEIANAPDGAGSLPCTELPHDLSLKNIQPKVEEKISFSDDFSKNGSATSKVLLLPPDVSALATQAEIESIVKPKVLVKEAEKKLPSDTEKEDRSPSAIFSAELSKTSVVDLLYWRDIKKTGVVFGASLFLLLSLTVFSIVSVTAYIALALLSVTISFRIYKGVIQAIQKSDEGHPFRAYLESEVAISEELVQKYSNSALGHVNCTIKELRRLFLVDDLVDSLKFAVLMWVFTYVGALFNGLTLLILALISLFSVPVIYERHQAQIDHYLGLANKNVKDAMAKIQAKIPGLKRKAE
UniProt Q9Y3Z3: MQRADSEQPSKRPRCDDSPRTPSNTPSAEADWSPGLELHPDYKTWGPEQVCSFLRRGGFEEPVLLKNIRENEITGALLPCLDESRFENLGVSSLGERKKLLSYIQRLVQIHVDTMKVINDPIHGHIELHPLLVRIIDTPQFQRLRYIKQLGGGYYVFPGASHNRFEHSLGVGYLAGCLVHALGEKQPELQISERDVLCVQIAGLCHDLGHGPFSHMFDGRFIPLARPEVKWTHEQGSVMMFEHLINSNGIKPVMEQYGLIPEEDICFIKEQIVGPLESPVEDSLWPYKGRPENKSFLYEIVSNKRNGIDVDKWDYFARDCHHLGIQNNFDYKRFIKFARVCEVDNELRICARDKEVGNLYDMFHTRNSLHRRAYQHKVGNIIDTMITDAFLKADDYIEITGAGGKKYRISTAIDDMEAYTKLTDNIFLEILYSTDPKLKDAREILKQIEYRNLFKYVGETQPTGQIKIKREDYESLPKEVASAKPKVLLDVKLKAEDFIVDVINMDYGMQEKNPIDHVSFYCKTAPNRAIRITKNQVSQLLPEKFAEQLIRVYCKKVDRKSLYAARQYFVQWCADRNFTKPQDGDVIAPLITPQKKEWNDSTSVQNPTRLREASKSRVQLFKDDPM
UniProt Q9NRP4: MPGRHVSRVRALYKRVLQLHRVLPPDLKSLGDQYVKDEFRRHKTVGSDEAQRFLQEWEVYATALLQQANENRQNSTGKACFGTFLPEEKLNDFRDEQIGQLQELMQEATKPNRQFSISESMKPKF
UniProt Q14108: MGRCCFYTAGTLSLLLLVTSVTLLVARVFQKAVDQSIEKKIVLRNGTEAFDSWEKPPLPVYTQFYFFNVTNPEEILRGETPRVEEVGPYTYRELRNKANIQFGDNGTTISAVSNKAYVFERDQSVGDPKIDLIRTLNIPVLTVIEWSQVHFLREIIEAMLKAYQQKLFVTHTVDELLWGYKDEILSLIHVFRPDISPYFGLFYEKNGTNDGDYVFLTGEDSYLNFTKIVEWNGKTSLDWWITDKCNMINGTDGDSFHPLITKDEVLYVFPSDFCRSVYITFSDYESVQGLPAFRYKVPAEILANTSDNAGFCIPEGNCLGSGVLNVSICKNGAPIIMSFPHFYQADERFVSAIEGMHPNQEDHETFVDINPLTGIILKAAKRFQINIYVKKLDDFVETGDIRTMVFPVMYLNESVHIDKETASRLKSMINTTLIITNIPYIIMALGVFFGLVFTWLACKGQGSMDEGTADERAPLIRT

Key:
Test in all cases: log2 fold change, soluble protein after heating vs DMSO (PISA); higher = thermal stabilisation; K562 cells, 10 uM, 30 min; active = over 0.2 and 3.5 SD of the protein, either way, in both replicates (recomputed)
[1] = compound: CC1=C(C=C(C=C1)NC(=O)C2=CC(=CC=C2)C(C)(C)C#N)NC3=CC4=C(C=C3)N=CN(C4=O)C
Summary of the method: (§1)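 K562 cells at 2×10^6 cells/mL were exposed to 10 μM compound for 30 min, then aliquots were heated for 3 min across 48°C-58°C, pooled, and extracted in PBS containing 0.5% NP-40 at 4°C. The supernatant after 21,000xg for 90 min was taken as soluble protein and measured by TMTpro 16plex LC-MS/MS with channel sums equalised. Thermal stability is reported relative to control samples, with values from duplicates. Fold changes are given on a log2 scale.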

[2] = compound: CC1=C(C=C(C=C1)NC(=O)C2=CC(=CC=C2)N(C)C)NC(=O)C3=CC=C(C=C3)O
Summary of the method: as §1

[3] = compound: CC1=CC=C(C=C1)SC2=C3C=C(SC3=CN=C2)C(=O)N
Summary of the method: as §1

[4] = compound: CC1=NC(=CC=C1)C2=C(N=C(N2)C(C)(C)C)C3=CC4=NC=CN=C4C=C3
Summary of the method: as §1

Nexturastat A = compound: CCCCN(Cc1ccc(C(=O)NO)cc1)C(=O)Nc1ccccc1 [Nexturastat A]
Summary of the method: as §1

vemurafenib = compound: CCCS(=O)(=O)Nc1ccc(F)c(C(=O)c2c[nH]c3ncc(-c4ccc(Cl)cc4)cc23)c1F [vemurafenib]
Summary of the method: as §1

[5] = compound: CCCS(=O)(=O)Nc1ccc(F)c(C(=O)c2c[nH]c3ncc(Cl)cc23)c1F
Summary of the method: as §1

[6] = compound: CCCc1cc(C)[nH]c(=O)c1CNC(=O)c1cc(-c2ccnc(N3CCN(C)CC3)c2)cc2c1cnn2C(C)C
Summary of the method: as §1

givinostat = compound: CCN(CC)Cc1ccc2cc(COC(=O)Nc3ccc(C(=O)NO)cc3)ccc2c1 [givinostat]
Summary of the method: as §1

barasertib = compound: CCN(CCCOc1ccc2c(Nc3cc(CC(=O)Nc4cccc(F)c4)[nH]n3)ncnc2c1)CCOP(=O)(O)O [barasertib]
Summary of the method: as §1

[7] = compound: CC[C@@H]1C(=O)N(C)c2cnc(Nc3ccc(C(=O)NC4CCN(C)CC4)cc3OC)nc2N1C1CCCC1
Summary of the method: as §1

volasertib = compound: CC[C@@H]1C(=O)N(C)c2cnc(Nc3ccc(C(=O)N[C@H]4CC[C@H](N5CCN(CC6CC6)CC5)CC4)cc3OC)nc2N1C(C)C [volasertib]
Summary of the method: as §1

[8] = compound: CC[C@H](C)N1C=C(C2=C(C=C(C=C21)C3=CN=C(C=C3)N4CCNCC4)C(=O)NCC5=C(C=C(NC5=O)C)C)C
Summary of the method: as §1

epoxomicin = compound: CC[C@H](C)[C@@H](C(=O)N[C@@H]([C@@H](C)O)C(=O)N[C@@H](CC(C)C)C(=O)[C@]1(CO1)C)NC(=O)[C@H]([C@@H](C)CC)N(C)C(=O)C [epoxomicin]
Summary of the method: as §1

[9] = compound: CCn1c(C(=O)N(C2CC2)C2CC2)cc2c3c(ncn3C)c(Nc3cc(C)n(C)n3)nc21
Summary of the method: as §1

[10] = compound: CCn1cc(-c2ccnc3[nH]c(-c4cccc(CN(C)C)c4)cc23)c(-c2ccc(NC(=O)N(C)C)cc2)n1
Summary of the method: as §1

[11] = compound: CN(C)CC(=O)Nc1ccc2[nH]c(=O)c3ccccc3c2c1
Summary of the method: as §1

rosiglitazone = compound: CN(CCOC1=CC=C(C=C1)C[C@H]2C(=O)NC(=O)S2)C3=CC=CC=N3 (racemic) [rosiglitazone]
Summary of the method: as §1

[12] = compound: CN1C2=C(C3=C1C(=O)N(N=C3)CC4=CC(=CC=C4)N)SC(=C2)S(=O)C
Summary of the method: as §1

[13] = compound: CN1CCC(CNc2ccc3ncc(-c4cccc(OC(F)(F)F)c4)n3n2)CC1
Summary of the method: as §1

Measured: log2 fold change

SEC13 isoform 3 (UniProt P55735)
inactive: [1] -0.026 | [2] -0.02 | [3] -0.011 | [4] 0.006 | Nexturastat A -0.072 | vemurafenib 0.019 | [5] 0.035 | [6] 0.057 | givinostat 0.003 | barasertib 0.024 | [7] 0.045 | volasertib 0.013 | [8] 0.002 | epoxomicin 0.065 | [9] -0.014 | [10] -0.018 | [11] 0.006 | rosiglitazone 0.021 | [12] 0.029 | [13] -0.072

SCFD1 (UniProt Q8WVM8)
inactive: [1] 0.052 | [2] -0.064 | [3] 0.011 | [4] 0.021 | Nexturastat A -0.013 | vemurafenib 0.042 | [5] 0.058 | [6] 0.042 | givinostat 0.032 | barasertib 0.032 | [7] -0.039 | volasertib -0.154 | [8] 0.095 | epoxomicin 0.024 | [9] -0.037 | [10] -0.005 | [11] 0.028 | rosiglitazone 0.047 | [12] 0.016 | [13] -0.042

SCARB1 isoform 2 (UniProt Q8WTV0)
inactive: [1] 0.022 | [2] 0.032 | [3] 0.018 | [4] 0.026 | Nexturastat A -0.022 | vemurafenib 0.023 | [5] 0.015 | [6] -0.137 | givinostat -0.006 | barasertib -0.01 | [7] -0.027 | volasertib -0.132 | [8] -0.018 | epoxomicin 0.011 | [9] 0.01 | [10] 0.03 | [11] 0.05 | rosiglitazone -0.017 | [12] -0.018 | [13] 0.116

SCLY (UniProt Q96I15)
inactive: [1] -0.009 | [2] 0.027 | [3] 0 | [4] -0.003 | Nexturastat A -0.054 | vemurafenib -0.002 | [5] 0.011 | [6] -0.025 | givinostat 0.016 | barasertib -0.015 | [7] 0.037 | volasertib -0.012 | [8] 0 | epoxomicin -0.011 | [9] 0.028 | [10] -0.027 | [11] -0.004 | rosiglitazone 0.017 | [12] -0.079 | [13] 0.032

RTCA (UniProt O00442)
inactive: [1] -0.017 | [2] -0.004 | [3] 0.005 | [4] 0.015 | Nexturastat A 0 | vemurafenib -0.011 | [5] 0.02 | [6] -0.007 | givinostat 0.022 | barasertib 0.037 | [7] -0.055 | volasertib -0.099 | [8] -0.018 | epoxomicin 0.029 | [9] 0.02 | [10] -0.035 | [11] 0.023 | rosiglitazone 0.006 | [12] -0.001 | [13] -0.08

SCAMP1 (UniProt O15126)
inactive: [1] -0.001 | [2] 0.113 | [3] -0.026 | [4] -0.012 | Nexturastat A 0.029 | vemurafenib -0.05 | [5] -0.059 | [6] -0.124 | givinostat 0.034 | barasertib -0.036 | [7] 0.053 | volasertib 0.001 | [8] -0.006 | epoxomicin -0.031 | [9] -0.018 | [10] -0.01 | [11] -0.04 | rosiglitazone 0 | [12] -0.016 | [13] -0.036

SDE2 (UniProt Q6IQ49)
inactive: [1] -0.026 | [2] 0.013 | [3] 0 | [4] 0.012 | Nexturastat A 0.028 | vemurafenib 0.001 | [5] -0.002 | [6] -0.038 | givinostat 0.01 | barasertib -0.01 | [7] -0.077 | volasertib -0.152 | [8] -0.058 | epoxomicin 0.044 | [9] -0.005 | [10] 0.011 | [11] 0.007 | rosiglitazone 0.037 | [12] -0.029 | [13] -0.067

S100A13 (UniProt Q99584)
inactive: [1] -0.026 | [2] 0.013 | [3] 0.032 | [4] 0.059 | Nexturastat A -0.14 | vemurafenib -0.018 | [5] 0.006 | [6] -0.042 | givinostat 0.028 | barasertib 0.007 | [7] 0.009 | volasertib 0.083 | [8] 0.009 | epoxomicin -0.009 | [9] 0.014 | [10] 0.008 | [11] 0.004 | rosiglitazone 0.015 | [12] -0.061 | [13] -0.125

RUVBL1 (UniProt Q9Y265)
inactive: [1] 0.035 | [2] -0.007 | [3] -0.047 | [4] -0.027 | Nexturastat A -0.01 | vemurafenib -0.008 | [5] -0.081 | [6] -0.018 | givinostat -0.006 | barasertib -0.034 | [7] 0.069 | volasertib 0.242 | [8] -0.052 | epoxomicin -0.005 | [9] 0.019 | [10] 0 | [11] -0.028 | rosiglitazone -0.012 | [12] -0.026 | [13] 0.11

RYBP (UniProt Q8N488)
inactive: [1] -0.046 | [2] 0.017 | [3] -0.116 | [4] 0.002 | Nexturastat A 0.02 | vemurafenib 0.032 | [5] -0.062 | [6] 0.022 | givinostat 0.005 | barasertib 0.047 | [7] 0.059 | volasertib -0.013 | [8] -0.059 | epoxomicin 0.029 | [9] -0.046 | [10] 0.062 | [11] -0.011 | rosiglitazone -0.032 | [12] 0.037 | [13] -0.034

SARG (UniProt Q9BW04)
inactive: [1] -0.045 | [2] -0.056 | [3] 0.037 | [4] -0.017 | Nexturastat A -0.021 | vemurafenib 0.024 | [5] -0.009 | [6] 0.01 | givinostat 0.122 | barasertib -0.023 | [7] 0.03 | volasertib 0.011 | [8] -0.038 | epoxomicin -0.001 | [9] -0.08 | [10] -0.034 | [11] -0.017 | rosiglitazone -0.006 | [12] 0.023 | [13] -0.055

RTCB (UniProt Q9Y3I0)
inactive: [1] -0.011 | [2] 0.001 | [3] -0.015 | [4] -0.01 | Nexturastat A 0.028 | vemurafenib -0.006 | [5] 0.013 | [6] 0.01 | givinostat -0.019 | barasertib -0.009 | [7] -0.142 | volasertib -0.153 | [8] -0.027 | epoxomicin -0.012 | [9] 0.02 | [10] 0.009 | [11] -0.025 | rosiglitazone -0.006 | [12] 0.013 | [13] -0.044

2 consecutive records from above, for reference:
RTCA (UniProt O00442)
inactive: [1] -0.017 | [2] -0.004 | [3] 0.005 | [4] 0.015 | Nexturastat A 0 | vemurafenib -0.011 | [5] 0.02 | [6] -0.007 | givinostat 0.022 | barasertib 0.037 | [7] -0.055 | volasertib -0.099 | [8] -0.018 | epoxomicin 0.029 | [9] 0.02 | [10] -0.035 | [11] 0.023 | rosiglitazone 0.006 | [12] -0.001 | [13] -0.08

SCAMP1 (UniProt O15126)
inactive: [1] -0.001 | [2] 0.113 | [3] -0.026 | [4] -0.012 | Nexturastat A 0.029 | vemurafenib -0.05 | [5] -0.059 | [6] -0.124 | givinostat 0.034 | barasertib -0.036 | [7] 0.053 | volasertib 0.001 | [8] -0.006 | epoxomicin -0.031 | [9] -0.018 | [10] -0.01 | [11] -0.04 | rosiglitazone 0 | [12] -0.016 | [13] -0.036

Carrying on:

RTN4 (UniProt Q9NQC3)
inactive: [1] 0.006 | [2] 0.027 | [3] 0.069 | [4] 0.014 | Nexturastat A -0.057 | vemurafenib -0.014 | [5] 0.066 | [6] -0.126 | givinostat 0.022 | barasertib -0.025 | [7] 0.062 | volasertib 0.006 | [8] -0.045 | epoxomicin 0.013 | [9] 0.023 | [10] 0.015 | [11] 0.021 | rosiglitazone 0.04 | [12] -0.059 | [13] 0.042

SAMHD1 (UniProt Q9Y3Z3)
inactive: [1] -0.079 | [2] 0.018 | [3] -0.013 | [4] 0.002 | Nexturastat A 0.009 | vemurafenib -0.018 | [5] -0.028 | [6] -0.032 | givinostat 0.05 | barasertib 0.009 | [7] -0.014 | volasertib -0.007 | [8] 0.018 | epoxomicin 0.003 | [9] -0.046 | [10] -0.015 | [11] -0.003 | rosiglitazone 0 | [12] -0.03 | [13] -0.119

SDHAF3 (UniProt Q9NRP4)
inactive: [1] 0.015 | [2] 0.036 | [3] 0.004 | [4] 0.043 | Nexturastat A -0.149 | vemurafenib 0.073 | [5] 0.015 | [6] -0.118 | givinostat -0.03 | barasertib 0.037 | [7] -0.083 | volasertib 0.043 | [8] 0.002 | epoxomicin 0.039 | [9] 0.022 | [10] 0.041 | [11] 0.002 | rosiglitazone -0.018 | [12] -0.011 | [13] -0.182

SCARB2 (UniProt Q14108)
inactive: [1] -0.044 | [2] 0.05 | [3] 0.01 | [4] -0.003 | Nexturastat A -0.009 | vemurafenib 0.116 | [5] 0.069 | [6] -0.034 | givinostat -0.037 | barasertib -0.031 | [7] -0.075 | volasertib -0.105 | [8] -0.034 | epoxomicin 0.086 | [9] 0.008 | [10] -0.012 | [11] 0.062 | rosiglitazone 0 | [12] 0.071 | [13] 0.06
